Reference: patent publication US20070191299A1, “Extension Of The Expression of Transgenic Proteins By Immunomodulation” (priority 1997, published 2007)
At least one compound was matched to its structure with a doubt left.

System: human alpha 1-antitrypsin reporter gene expression
Test: Serum level of human α1-antitrypsin reporter after adenovirus administration (Example 2)
Type: in vivo, NMRI mice
Experimental: On day 0, all mice were administered-a dose of 1×10^10 adenoviruses via the tail vein. The recombinant adenoviruses carry the gene for human alpha 1-antitrypsin as a reporter gene found in the serum. This gene has proven to be a practicable reporter, since it is not antigenic in the mouse, but nevertheless can be differentiated from murine alpha 1-antitrypsin using a specific antibody. The half-life of the antiprotease is approximately 3-4 days, so that the serum level reflects the current synthesis capacity of the liver very well. […]

SMILES: C=CC[C@@H]1/C=C(\C)C[C@H](C)C[C@H](OC)[C@H]2O[C@@](O)(C(=O)C(=O)N3CCCC[C@H]3C(=O)O[C@H](/C(C)=C/[C@@H]3CC[C@@H](O)[C@H](OC)C3)[C@H](C)[C@@H](O)CC1=O)[C@H](C)C[C@@H]2OC [FK 506]
- suitability for increasing the tolerance to transgenic cells after discontinuing treatment (general statement of the description): unsuitable
- effect of short-term administration on long-term expression (short-term (5-day) administration, compared with control group, NMRI mice): counterproductive
